Experimental data from PubChem BioAssay AID330 (DTP/NCI, 2004).
The list does not hold the whole screen: it is rich in T/C values a quarter to a half above the control, in often repeated tests (any T/C) and in doses without a T/C. Other doses and runs of a compound stand elsewhere. T/C: endpoint of the treated group in % of that of the vehicle group. Some entries give survivors of the animals treated and no T/C: the source files T/C as zero there, which appears to mark a toxic dose or a test without result, not a measured value. Some survivor counts are full or nearly so, which does not show that the dose was tolerated: survival well below the control is almost never listed, so the zero probably covers shortened survival too. Counts of survivors are from the toxicity check (mostly the fifth day) where no day follows; animals may have died later. Schedule codes are those of the source, taken here to give the interval after Q, in days (D) or hours (H), and the number of doses after X. Where survival is the endpoint, the PubChem record calls one and a half times the control and up active, and a quarter to a half above the control has no call in these data; cut-offs in other NCI protocols can differ. Some T/C values are followed by the survivors on the day toxicity was checked, most often the fifth; without a count, all were alive then. Some entries were tested several times; the values are given in rising order.

System: P388 leukemia ip, CD2F1 mice, survival T/C
Assay: NCI In Vivo Anticancer Drug Screen. Data for tumor model P388 Leukemia (intraperitoneal) in CD2F1 (CDF1) mice
Settings: T/C endpoint: median survival time, higher T/C = longer survival
[1] = dose: 1.0 mg/kg/injection, schedule: Q01DX009 (ip), vehicle: saline
[2] = dose: 100.0 mg/kg/injection, schedule: Q01DX005 (ip), vehicle: saline with Tween-80
[3] = dose: 200.0 mg/kg/injection, schedule: Q01DX005 (ip), vehicle: saline with Tween-80
[4] = dose: 400.0 mg/kg/injection, schedule: Q01DX009 (ip), vehicle: saline with Tween-80
[5] = dose: 50.0 mg/kg/injection, schedule: Q01DX009 (ip), vehicle: saline with Tween-80
[6] = dose: 100.0 mg/kg/injection, schedule: Q01DX009 (ip), vehicle: saline with Tween-80
[7] = dose: 200.0 mg/kg/injection, schedule: Q01DX009 (ip), vehicle: saline with Tween-80
[8] = dose: 400.0 mg/kg/injection, schedule: Q04DX003 (ip), vehicle: Klucel (hydroxypropylcellulose) (HPC)
[9] = dose: 100.0 mg/kg/injection, schedule: Q04DX003 (ip), vehicle: saline with Tween-80
[10] = dose: 200.0 mg/kg/injection, schedule: Q04DX003 (ip), vehicle: saline with Tween-80
[11] = dose: 400.0 mg/kg/injection, schedule: Q04DX003 (ip), vehicle: saline with Tween-80
[12] = dose: 100.0 mg/kg/injection, schedule: Q01DX009 (ip), vehicle: saline
[13] = dose: 50.0 mg/kg/injection, schedule: Q01DX005 (ip), vehicle: saline with Tween-80

COC(C(=O)C(O)C(C)O)C1Cc2cc3cc(OC4CC(OC5CC(O)C(O)C(C)O5)C(O)C(C)O4)c(C)c(O)c3c(O)c2C(=O)C1OC1CC(OC2CC(O)C(OC3CC(C)(O)C(O)C(C)O3)C(C)O2)C(O)C(C)O1 (stereo unspecified)
T/C (dose: 0.13 mg/kg/injection, schedule: Q01DX009 (ip), vehicle: saline): 137 % of control
T/C (dose: 0.25 mg/kg/injection, schedule: Q01DX009 (ip), vehicle: saline): 147 % of control
T/C (dose: 1.0 mg/kg/injection, schedule: Q01DX001 (ip), vehicle: saline): 126 % of control
T/C [1]: 131 % of control
survivor count [1]: 8 of 10
T/C (dose: 1.0 mg/kg/injection, schedule: Q04DX003 (ip), vehicle: saline): 132 % of control [7 of 10 alive]
survivor count (dose: 2.0 mg/kg/injection, schedule: Q01DX001 (ip), vehicle: saline): 3 of 10
survivor count (dose: 2.0 mg/kg/injection, schedule: Q04DX003 (ip), vehicle: saline): 0 of 10
survivor count (dose: 4.0 mg/kg/injection, schedule: Q04DX003 (ip), vehicle: saline): 0 of 10

CCCC1N=C(N)N=C(N)N1c1ccc(OC)cc1 (stereo unspecified)
survivor count [2]: 1 of 5
survivor count [3]: 0 of 5

Cc1c2ccccc2cc2c1ccc1ccccc12
T/C (dose: 17.5 mg/kg/injection, schedule: Q01DX009 (ip), vehicle: saline with Tween-80): 141 % of control
T/C (dose: 35.0 mg/kg/injection, schedule: Q01DX009 (ip), vehicle: saline with Tween-80): 148 % of control
T/C (dose: 70.0 mg/kg/injection, schedule: Q01DX009 (ip), vehicle: saline with Tween-80): 132 % of control

CCN(CC)c1nc(N(CC)CC)nc(N(CC)CC)n1
survivor count [4]: 10 of 10

O=C(Nc1cccc(Cl)c1)c1cc(N=Nc2ccc([N+](=O)[O-])cc2Cl)ccc1O
survivor count (dose: 25.0 mg/kg/injection, schedule: Q01DX009 (ip), vehicle: saline with Tween-80): 5 of 6
survivor count [5]: 5 of 6
survivor count [6]: 0 of 6
survivor count [7]: 0 of 6
survivor count [8]: 0 of 6

Cc1ncc(/C=C/C(=O)O)c(C=O)c1O
survivor count [9]: 0 of 6
survivor count [10]: 0 of 6
survivor count [11]: 0 of 6

O=C(O)CCCCCCCCC(=O)CCl
survivor count [12]: 5 of 6

O=c1[nH]c(=O)n([C@H]2CCCO2)cc1F
T/C [6]: 135 % of control
T/C (dose: 134.0 mg/kg/injection, schedule: Q01DX009 (ip), vehicle: Klucel (hydroxypropylcellulose) (HPC)): 129 % of control
T/C (dose: 288.0 mg/kg/injection, schedule: Q04DX003 (ip), vehicle: Klucel (hydroxypropylcellulose) (HPC)): 131 % of control
survivor count [4]: 5 of 6
T/C (dose: 430.0 mg/kg/injection, schedule: Q04DX003 (ip), vehicle: Klucel (hydroxypropylcellulose) (HPC)): 142 % of control
T/C (dose: 957.0 mg/kg/injection, schedule: Q01DX001 (ip), vehicle: Klucel (hydroxypropylcellulose) (HPC)): 134 % of control
survivor count (dose: 1436.0 mg/kg/injection, schedule: Q01DX001 (ip), vehicle: Klucel (hydroxypropylcellulose) (HPC)): 3 of 10

c1csc(CSc2ncnc3nc[nH]c23)c1
T/C [11]: 133 % of control [5 of 6 alive]
survivor count (dose: 600.0 mg/kg/injection, schedule: Q04DX003 (ip), vehicle: saline with Tween-80): 3 of 6

c1ccc(CN2CCC(N3CNc4ccccc43)CC2)cc1
survivor count [9]: 1 of 6
survivor count [10]: 0 of 6
survivor count [11]: 0 of 6

COc1ccc(OC)c(N2C(=O)C(Cl)=C(Cl)C2=O)c1
survivor count (dose: 100.0 mg/kg/injection, schedule: Q01DX001 (ip), vehicle: saline with Tween-80): 0 of 6
survivor count (dose: 200.0 mg/kg/injection, schedule: Q01DX001 (ip), vehicle: saline with Tween-80): 0 of 6
survivor count (dose: 400.0 mg/kg/injection, schedule: Q01DX001 (ip), vehicle: saline with Tween-80): 0 of 6

CCCCC(NC(C)=O)C(=O)O (stereo unspecified)
survivor count [4]: 5 of 6

O=C1OC2C(COC(=O)c3cc(O)c(O)c(O)c3)OC(OC(=O)c3cc(O)c(O)c(O)c3)C(OC(=O)c3cc(O)c(O)c4c3C3C1=CC(=O)[C@](O)(O4)C3(O)O)C2OC(=O)c1cc(O)c(O)c(O)c1 (stereo partly specified)
survivor count (dose: 50.0 mg/kg/injection, schedule: Q01DX009 (ip), vehicle: saline): 4 of 6
survivor count [12]: 0 of 6
survivor count (dose: 200.0 mg/kg/injection, schedule: Q01DX009 (ip), vehicle: saline): 0 of 6

CN1C(=O)C(N=O)C(=O)N(C)C1=S
survivor count (dose: 100.0 mg/kg/injection, schedule: Q04DX002 (ip), vehicle: saline with Tween-80): 0 of 6
survivor count (dose: 200.0 mg/kg/injection, schedule: Q04DX002 (ip), vehicle: saline with Tween-80): 0 of 6
survivor count (dose: 400.0 mg/kg/injection, schedule: Q04DX002 (ip), vehicle: saline with Tween-80): 0 of 6

O=C1C(N2CCOCC2)=C(N2CC2)C(=O)C(N2CCOCC2)=C1N1CC1
survivor count (dose: 2.0 mg/kg/injection, schedule: Q01DX009 (ip), vehicle: saline): 6 of 6

CC/C(=C(/CC)c1ccc(OCC(=O)N/N=C2\CCC3C4CCc5cc(O)ccc5C4CCC23C)cc1)c1ccc(OCC(=O)N/N=C2/CCC3C4CCc5cc(O)ccc5C4CCC23C)cc1 (stereo unspecified)
survivor count (dose: 100.0 mg/kg/injection, schedule: Q01DX001 (ip), vehicle: Klucel (hydroxypropylcellulose) (HPC)): 5 of 6

O=C1c2ccccc2C(=O)c2c1cc1cccccc2-1
survivor count (dose: 25.0 mg/kg/injection, schedule: Q01DX005 (ip), vehicle: saline with Tween-80): 6 of 6
survivor count [13]: 6 of 6
survivor count [2]: 6 of 6

COc1cc(C(=O)Nc2ccc(NC3=NCCN3)cc2)cc(C(=O)Nc2ccc(NC3=NCCN3)cc2)c1
survivor count [13]: 0 of 6
survivor count [2]: 0 of 6
survivor count [3]: 0 of 6

CN(C)C(=O)c1cccc(COc2ccc([N+](=O)[O-])cc2Cl)c1
T/C [7]: 130 % of control

CN=S(=O)(OCCCCCOS(=O)(=NC)c1ccccc1)c1ccccc1 (stereo unspecified)
T/C [5]: 132 % of control
survivor count [5]: 6 of 6
T/C [6]: 140 [5 of 6 alive] and 141 % of control
survivor count [6]: 5 of 6
survivor count [7]: 0 of 6
survivor count [4]: 0 of 6

Cc1c(Cl)c(Cl)nn1C(C)C(=O)N(C)C (stereo unspecified)
survivor count [8]: 6 of 6

N#CC(C#N)=C(c1ccccc1)c1ccccc1
survivor count (dose: 400.0 mg/kg/injection, schedule: Q01DX009 (ip), vehicle: Klucel (hydroxypropylcellulose) (HPC)): 1 of 6

C=C(C)C12CC(C)C34OC5(CCCCCCCC(C)C6C(C)C(OC(=O)c7ccccc7)C(O)(C(O)C7(CO)OC7C3C1O5)C64)O2 (stereo unspecified)
T/C (dose: 20.0 micrograms/kg/injection, schedule: Q01DX009 (ip), vehicle: saline + alcohol): 132 % of control
T/C (dose: 40.0 micrograms/kg/injection, schedule: Q01DX009 (ip), vehicle: saline + alcohol): 133 % of control
survivor count (dose: 80.0 micrograms/kg/injection, schedule: Q01DX009 (ip), vehicle: saline + alcohol): 6 of 6

COc1ccc(NC(=O)NNC(N)=S)cc1
survivor count [7]: 2 of 6

CC1(C)SC(C)(c2ccco2)N(c2nccs2)C1=O (stereo unspecified)
survivor count (dose: 240.0 mg/kg/injection, schedule: Q01DX005 (ip), vehicle: Klucel (hydroxypropylcellulose) (HPC)): 1 of 6

CCOC(=O)Oc1cc2c(c(OC)c1OC)-c1ccc(OC)c(=O)cc1C(NC(C)=O)CC2 (stereo unspecified)
survivor count (dose: 25.0 mg/kg/injection, schedule: Q01DX005 (ip), vehicle: Klucel (hydroxypropylcellulose) (HPC)): 6 of 6
survivor count (dose: 50.0 mg/kg/injection, schedule: Q01DX005 (ip), vehicle: Klucel (hydroxypropylcellulose) (HPC)): 3 of 6
survivor count (dose: 100.0 mg/kg/injection, schedule: Q01DX005 (ip), vehicle: Klucel (hydroxypropylcellulose) (HPC)): 5 of 6
